# In PubChem BioAssay AID1347076 (National Center for Advancing Translational Sciences (NCATS), 2019):
# Screen size: about 400,000 compounds; about 13,000 (3.2%) were called active. Inconclusive means that the source gave no clear call. Such entries were picked first, then a sample of the others. Calls follow the shape of the dose curve; as a rule, active = well fitted cell-killing curve with a large enough effect; inconclusive = small, poorly fitted or top-dose-only effect, or effect the other way; inactive = flat fitted curve, though single readings scatter. Potencies of inconclusive entries are doubtful fits and often do not repeat.
# Test: qHTS assay for MDR1-selective chemotherapeutics: Primary screen using the drug-selected MDR subline cells KB-V1; also: nearly all actives have a fitted effect of over 60% in size
# Settings: KB-V1 MDR cells viability, CellTiter-Glo, 72 h; activity change, negative = cytotoxicity: at 46.1 µM (top of the series)
# How it was run: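 Compound-treated KB-V1 multidrug-resistant cells, 72 h, 37 degrees C; viability by CellTiter-Glo. Fitted qHTS curves give the values.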
# % is scaled to controls: 0 for no effect and ±100 for the full control effect; potency is read from the fitted curve at half-maximal effect.
Compound,Potency,"activity change, negative = cytotoxicity"
Cn1c(SSc2ccc(-c3cccnc3)n2C)ccc1-c1cccnc1,"inconclusive: 29.1 µM [cytotoxic, single point]",–
CCCCC[C@@H](C)N1C[C@H](COCc2ccccc2)Oc2cc(N3CC[C@H](N(C)C)C3)ccc2S1(=O)=O,"inconclusive: 29.1 µM [cytotoxic, single point]",–
COc1ccc(-n2ncc3c(N4CCN(c5cccc(C)c5C)CC4)ncnc32)cc1,–,inconclusive: 46.5%
CCCCNC(=O)Cn1c(=O)c2c(ncn2CCC(C)C)n(Cc2ccccc2)c1=O,"inconclusive: 11.6 µM [cytotoxic, partial curve, poor fit]",–
CCOc1ccc(OCc2ccc(C(=O)NCC3CCCO3)o2)cc1 (configuration not stated),"inconclusive: 20.6 µM [cytotoxic, single point]",–
COc1ccc(C2CC(=O)N(C)c3ccccc3S2)cc1 (configuration not stated),"inconclusive: 29.1 µM [cytotoxic, single point]",–
COc1ccc(-n2nc(C(=O)NCC(=O)N3CCCCCC3)c3ccccc3c2=O)c(OC)c1,"inconclusive: 3.66 µM [cytotoxic, full curve]",–
CC(=O)NC(c1ccc(Cl)cc1)c1ccc2cccnc2c1O (configuration not stated),"inconclusive: 5.17 µM [cytotoxic, partial curve, poor fit]",–
COc1ccc(-c2noc(C3CCCN(C(=O)c4cccs4)C3)n2)cc1 (configuration not stated),"inconclusive: 3.66 µM [cytotoxic, full curve, poor fit]",–
O=C(CN1CCN(C(C(=O)Nc2ccc(Cl)cc2C(F)(F)F)c2ccccc2)CC1)NC1CC1 (configuration not stated),"inconclusive: 16.4 µM [cytotoxic, single point]",–
CN(c1ccccc1)S(=O)(=O)c1ccc(Cl)c(C(=O)Nc2nc3ccccc3[nH]2)c1,"inconclusive: 29.1 µM [cytotoxic, single point]",–
COc1ccc(CNC(=O)COc2ccc(S(=O)(=O)N3CCCCC3)cc2Cl)cc1,"inconclusive: 6.51 µM [cytotoxic, partial curve]",–
Cc1ccc(C)c(CNS(=O)(=O)c2c(C)[nH]c(C)c2C(=O)N2CCCCC2)c1,inactive,–
Cc1ccc2c(=O)c(C(=O)c3ccccc3)cn(CC(=O)Nc3ccc4c(c3)OCCO4)c2n1,inactive,–
COc1cc(OC)nc(NC(=O)CS(=O)(=O)c2ccccc2)n1,"inconclusive: 10.3 µM [rising, partial curve, poor fit]",–
CCN1CCN(C(=O)c2ccccc2N(Cc2ccccc2)S(C)(=O)=O)CC1,"inconclusive: 8.2 µM [cytotoxic, partial curve]",–
CCOC(=O)N/N=C/c1ccc(N2CCOCC2)s1,"inconclusive: 29.1 µM [cytotoxic, single point]",–

# 3 of the compounds above, with tabs.
Compound	Potency	activity change, negative = cytotoxicity
CCCCNC(=O)Cn1c(=O)c2c(ncn2CCC(C)C)n(Cc2ccccc2)c1=O	inconclusive: 11.6 µM [cytotoxic, partial curve, poor fit]	–
COc1ccc(CNC(=O)COc2ccc(S(=O)(=O)N3CCCCC3)cc2Cl)cc1	inconclusive: 6.51 µM [cytotoxic, partial curve]	–
CCN1CCN(C(=O)c2ccccc2N(Cc2ccccc2)S(C)(=O)=O)CC1	inconclusive: 8.2 µM [cytotoxic, partial curve]	–
